This note sets out measurements from patent WO2011147834A1 (dated 2011).

No constants are given. Whether binding was seen depends on the method and setting. For part of these data: Binding calls can cover weak binding; strength is not graded here.

Holding throughout (test): FACS on B-cells of the respective species
Assay [1] deals with chimpanzee CD19 (chimpanzee).
The target of a further assay is dog CD19 (dog).
Another assay deals with hamster CD19 (hamster).

B1: Mab381 (antibody, V domains shown)
VH: QVQLQQSGAELVRPGSSMKISCKASGYAFSSYWMNWVKQRPGQGLEWIGQIYPGDGDINYSGKFKGKVTLTADKSSSTAYMQLSSLTSEDSAVYFCARTITTVVGYVMDYWGQGTSVTVSS
VL: DIVMTQSHKFMSTSVGDRVSITCKASQDVGTVVAWYQQKPGQSPKLLIYWASTRHTGVPDRFTGSGSGTDFTLTISNVQSEDLADYFCQQYSSYPYTFGGGTKLEIKR
notes: Murine monoclonal antibody purified from hybridoma 8C3
For B1, the figures for the binding result (in assay [1]; in the assay with dog CD19 (dog); with hamster CD19 (hamster)) were “binds”, “no binding” and “no binding”, respectively.
